Binding data for 1 substance are collected here from article PMC9707766.

The chains behind the UniProt entries cited, without tags or fusion partners.
UniProt Q15388: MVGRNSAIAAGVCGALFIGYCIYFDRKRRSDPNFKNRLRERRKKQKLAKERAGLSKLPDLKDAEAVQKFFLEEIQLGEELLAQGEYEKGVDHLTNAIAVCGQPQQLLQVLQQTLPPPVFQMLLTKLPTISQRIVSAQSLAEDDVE

The test addresses T1, ATP13A2-Halo (human) (UniProt Q9NQ11).
T1 sequence: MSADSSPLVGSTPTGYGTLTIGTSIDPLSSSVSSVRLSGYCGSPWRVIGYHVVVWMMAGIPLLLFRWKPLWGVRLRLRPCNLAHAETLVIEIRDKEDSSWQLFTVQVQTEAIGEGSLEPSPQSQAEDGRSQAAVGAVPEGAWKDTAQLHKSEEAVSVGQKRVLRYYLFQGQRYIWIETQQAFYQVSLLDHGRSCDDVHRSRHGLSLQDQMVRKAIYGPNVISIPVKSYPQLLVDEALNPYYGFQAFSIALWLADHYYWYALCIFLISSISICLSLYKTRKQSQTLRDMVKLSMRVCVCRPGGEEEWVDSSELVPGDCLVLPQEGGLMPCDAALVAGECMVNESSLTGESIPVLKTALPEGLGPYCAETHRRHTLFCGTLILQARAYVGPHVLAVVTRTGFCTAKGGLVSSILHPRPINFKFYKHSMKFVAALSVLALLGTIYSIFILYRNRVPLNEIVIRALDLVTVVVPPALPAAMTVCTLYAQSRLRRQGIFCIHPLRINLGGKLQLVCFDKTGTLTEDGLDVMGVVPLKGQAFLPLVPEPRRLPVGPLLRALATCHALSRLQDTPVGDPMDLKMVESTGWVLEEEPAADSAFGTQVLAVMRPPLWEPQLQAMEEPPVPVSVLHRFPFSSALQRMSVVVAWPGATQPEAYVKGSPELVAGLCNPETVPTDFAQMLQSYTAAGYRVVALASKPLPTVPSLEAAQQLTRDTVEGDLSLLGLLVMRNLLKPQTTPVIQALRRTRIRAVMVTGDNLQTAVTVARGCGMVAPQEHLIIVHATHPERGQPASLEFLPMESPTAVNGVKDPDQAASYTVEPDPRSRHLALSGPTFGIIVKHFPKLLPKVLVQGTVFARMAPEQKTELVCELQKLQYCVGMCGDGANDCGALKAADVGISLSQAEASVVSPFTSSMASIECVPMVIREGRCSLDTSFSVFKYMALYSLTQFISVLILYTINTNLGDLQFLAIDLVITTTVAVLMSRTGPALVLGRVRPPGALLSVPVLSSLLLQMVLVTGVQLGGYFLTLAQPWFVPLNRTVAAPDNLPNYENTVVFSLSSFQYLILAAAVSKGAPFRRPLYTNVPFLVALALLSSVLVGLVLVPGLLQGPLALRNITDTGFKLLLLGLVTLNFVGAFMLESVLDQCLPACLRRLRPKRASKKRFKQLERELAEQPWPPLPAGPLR
Description: co-IP; lysate of HeLa cells stably expressing ATP13A2-Halo and transfected with mCherry-TOM20-N-10; 20 mM HEPES pH 7.5, 0.15 M NaCl, 0.5% Triton X-100; anti-ATP13A2 antibody or normal IgG overnight at 4°C, Dynabeads Protein G, five washes with 0.1% Triton X-100; western blotting.

Results are given in words; binding and its absence hold for the method and conditions named. In cells and extracts the contact can be indirect. Some binding calls cover weakened binding; strength is not graded here.

Turning to “mCherry-TOM20-N (from UniProt Q15388 1-145)”, the binding entry is recorded as “binds”.
